Hit rate of the full screen: of about 2,200 compounds, about 15 (0.7%) were called active.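 The calls were made as follows: active = fitted half-maximal concentration for loss of luminescence signal no more than a set limit of log units above the top tested concentration; inconclusive = flat fit with 30 to 70% signal loss, or invalid fit; inactive = half-maximal concentration above that set limit.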 This is one part of the list.
Assay: inhibitors of ADP-Glo detection reagents, dose response, artefact control for GSK3beta inhibitor project, biochemical, luminescence, cell-free, homogeneous (AID 434947)
Conditions: 5 uM ADP

EC50, inactive:
CCc1ccc(/C=N/NC(=O)c2nnn(-c3nonc3N)c2CN2CCc3ccccc32)cc1 > 30 µM
O=c1cc(-c2ccccc2)c2c(O)cc(O)cc2o1 > 30 µM
COc1ccc(-c2nn(-c3ccccc3)cc2/C=N/N2C(=O)CSC2=S)cc1 > 30 µM
COc1ccc(OC)c(C(=O)c2coc3ccc(OC(C)=O)cc23)c1 > 30 µM
COc1cc(NC2=CC(=O)CC(C)(C)C2)cc(OC)c1OC > 30 µM
CSc1nc2n(n1)C(c1cccs1)C1=C(CCCC1=O)N2 (stereo not given) > 30 µM
COc1cccc(C2C(C#N)=C(C)NC3=C2C(=O)CC(C)(C)C3)c1 (stereo not given) > 30 µM
CC(Sc1ccc2nnc(-c3ccc(F)cc3)n2n1)C(=O)O (stereo not given) > 30 µM
C/C(CC(=O)Nc1cc(C)ccn1)=N\NC(=O)C(=O)NC(C)C > 30 µM
CC1(C)CC(=O)C2=C(C1)Nc1[nH]c(=S)[nH]c(=O)c1C2c1ccccc1 (stereo not given) > 30 µM
COc1ccc(-c2nn(-c3ccccc3)cc2/C=N/Nc2ccc(Cl)c(C(=O)O)c2)cc1OC > 30 µM
COc1ccc(C(=O)/C=C2/C(=O)Nc3ccccc32)c(OC)c1 > 30 µM
Cc1cnc(NC(=O)c2sc(Nc3ccccc3)nc2N)o1 > 30 µM
N#Cc1c(N)n(-c2cccc(O)c2)c2nc3ccccc3nc12 > 30 µM
CCOc1ccc(CNC(=O)Cn2ccc3cc(S(=O)(=O)N4CCCCCC4)ccc32)cc1 > 30 µM
COC(=O)c1cc(S(=O)(=O)N2CCCC(C)C2)c[nH]1 (stereo not given) > 30 µM
N#CC(C#N)=C1NC(N)=C(C#N)C(c2ccccc2)=C1C#N > 30 µM
O=C(NCC(c1ccco1)N1CCc2ccccc21)c1c(F)cccc1F (stereo not given) > 30 µM
O=C(O)c1ccc(N/N=C/c2ccc(-c3cccc(Cl)c3)o2)cc1 > 30 µM
Cc1ccnc(NC(=O)c2ccc([N+](=O)[O-])s2)c1 > 30 µM
COc1cccc(-c2nc(SCC(=O)Nc3nc(-c4ccccc4)c(C)s3)[nH]c(=O)c2C#N)c1 > 30 µM
CCOC(=O)CCNCC1COc2ccccc2O1 (stereo not given) > 30 µM
O=C(COc1ccccc1[N+](=O)[O-])N/N=C/c1ccc[nH]1 > 30 µM
CC(=O)CSc1nc(-c2cccs2)c(C#N)c(=O)[nH]1 > 30 µM
Cc1cc(NC(=O)CCN2CCC(C)CC2)ccc1Br > 30 µM
CCCn1nc(NC(=O)C(C)C)c2cc3cc(OC)ccc3nc21 > 30 µM
CCSc1nnc(-c2cccs2)o1 > 30 µM
CSc1nc(C)cc(-n2ccc(=O)[nH]c2=O)n1 > 30 µM
c1ccc(-c2nnc(-c3ccncc3)nc2-c2ccccc2)cc1 > 30 µM
COc1ccc(-c2cn3c(C)c(C(=O)Nc4ccncc4)sc3n2)cc1 > 30 µM
O=C(N/N=C/c1ccc(N2CCCC2)c([N+](=O)[O-])c1)c1cccnc1 > 30 µM
CCOC(=O)/C(C(=O)Nc1ccc(Cl)cc1Cl)=C1/NC(C)(C)Cc2ccccc21 > 30 µM
CC(C)=CCc1c(O)cc2c(=O)c3ccc(O)cc3oc2c1O > 30 µM
CC(C)Cn1nc(NC(=O)c2cccs2)c2cc3ccccc3nc21 > 30 µM
O=C1Nc2cc(C(=O)NCCN3CCCCCC3)ccc2S/C1=C\c1ccccc1 > 30 µM
CS(=O)(=O)c1nncn1-c1ccccc1 > 30 µM
CCC(Sc1ccc2nnc(-c3ccc(F)cc3)n2n1)C(=O)OC (stereo not given) > 30 µM
CCOC(=O)c1cnc2ccc(Cl)cc2c1N1CCN(C)CC1 > 30 µM
CCCN(CCC)Cc1c(C(=O)N/N=C/c2ccncc2)nnn1-c1nonc1N > 30 µM
COC(=O)C(C(=O)OC)c1ccc(NC(=O)c2cccc(Cl)c2)cc1 > 30 µM
O=C1NC(=Nc2ccccc2Cl)S/C1=C\c1ccc(C(=O)O)cc1 > 30 µM
CO/N=C/c1ccc(Oc2ccc([N+](=O)[O-])cc2[N+](=O)[O-])c(OC)c1 > 30 µM
COc1ccc(-c2c(C)oc3ccc(C)cc23)cc1 > 1.2 µM
O=C(CCC1COc2ccccc2O1)NCC1COc2ccccc2O1 (stereo not given) > 30 µM
O=Cc1cn(CCC(=O)O)nc1-c1cccc2ccccc12 > 30 µM
Cc1cc(OCC(F)(F)C(F)(F)C(F)(F)C(F)F)nc(N)n1 > 30 µM
CCCc1cc(C(=O)Nc2cc(Br)ccc2O)no1 > 30 µM
CCC(=O)n1nc(-c2ccc(OC)cc2)nc1N > 30 µM
Cc1cc2c(=O)oc(-c3ccc(F)cc3)nc2s1 > 30 µM
Cc1ccc(C(=O)N/N=C2\CCCc3ccccc32)c(C)c1 > 30 µM
Nc1nc(NCc2ccc(Cl)cc2)nc(NCCO)c1[N+](=O)[O-] > 30 µM
Nc1nc(N)nc(-c2cc(Cl)ccc2Cl)n1 > 30 µM
COc1ccc2oc(C)c(C(=O)c3ccc(C)cc3)c2c1 > 30 µM
O=C(O)c1ccccc1Nc1ccc([N+](=O)[O-])cc1 > 30 µM
CC(C)=CCc1c(O)c(CC=C(C)C)c2c(c1O)C(=O)CC(c1ccc(O)cc1)O2 (stereo not given) > 30 µM
CC(C)c1ccc(NC2=CC(=O)CC(C)(C)C2)cc1 > 30 µM
NC(=O)c1ccc(N2CCCCCC2)c([N+](=O)[O-])c1 > 30 µM
COc1ccc(Nc2nc(NCCN3CCOCC3)nc(Nc3ccc(OC)cc3)n2)cc1 > 30 µM
Cn1cc(S(=O)(=O)NCc2ccc(F)cc2)c(=O)n(C)c1=O > 30 µM
CSc1nc(-c2cccs2)c(C#N)c(=O)[nH]1 > 30 µM

A run of entries of the results above, as a working copy:
EC50, inactive:
CC1(C)CC(=O)C2=C(C1)Nc1[nH]c(=S)[nH]c(=O)c1C2c1ccccc1 (stereo not given) > 30 µM
COc1ccc(-c2nn(-c3ccccc3)cc2/C=N/Nc2ccc(Cl)c(C(=O)O)c2)cc1OC > 30 µM
